Measured values taken from PubChem BioAssay (EPA / NIEHS).
Several values for one entry are separate records, joined by “and”; a condition that tells them apart may be missing. Equal values may be shown once. The shares of active, inactive and inconclusive entries below differ from those in the screen. Potencies beside an inconclusive call are fits to weak or partial responses and may not hold up. Activity calls are given as the source filed them. The calls were made as follows: active = hit-call score of the fitted dose curve at least 0.9, where 1 is the maximum; inconclusive = response in the unintended direction; inactive = score below 0.9.

Amino acid sequences for entries named in this document (tags omitted).
UniProt P04637, whole entry, looked up: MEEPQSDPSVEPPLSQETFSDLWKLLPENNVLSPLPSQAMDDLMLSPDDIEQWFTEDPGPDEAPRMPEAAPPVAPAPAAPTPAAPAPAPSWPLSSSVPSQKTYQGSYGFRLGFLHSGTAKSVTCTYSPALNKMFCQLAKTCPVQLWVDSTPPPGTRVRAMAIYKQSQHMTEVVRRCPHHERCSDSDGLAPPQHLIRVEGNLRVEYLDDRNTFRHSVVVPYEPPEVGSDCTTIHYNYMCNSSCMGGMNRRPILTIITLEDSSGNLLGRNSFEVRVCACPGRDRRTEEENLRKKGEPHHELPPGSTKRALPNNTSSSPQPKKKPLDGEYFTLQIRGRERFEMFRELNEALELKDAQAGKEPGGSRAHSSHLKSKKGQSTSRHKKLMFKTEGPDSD

Biological target: Cellular tumor antigen p53 (Homo sapiens) (UniProt P04637)
Test: TOX21_p53_BLA_p5_ratio: Tox21 HCT-116 p53 Agonism Beta-lactamase Assay, Ratio, Phase 5 (AID 2283599)
Outline: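 Beta-lactamase reporter ratio (blue 460 nm over green 530 nm, 405 nm excitation) after 2 h CCF4-AM loading, in HCT-116 cells exposed 16 h at 37 C to compounds pinned at 217-fold dilution. Increases relative to DMSO baseline scored.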

| Compound | AC50 | outcome |
| --- | --- | --- |
| COc1ccc2c3c1O[C@H]1[C@H](O)CC[C@H]4[C@@H](C2)N(C)CC[C@@]341 | inconclusive: 45.5 µM | – |
| O=[N+]([O-])c1ccccc1-c1ccccc1 | – | inactive |
| COc1cc(C[C@@H](C)N)c(OC)cc1Br | inconclusive: 51.9 µM | – |
| CCCCN(N=O)C(=N)N[N+](=O)[O-] | active: 55.2 µM | – |
| Nc1ccccc1Cl | inconclusive: 84.7 µM | – |
| CCC1(C)CC(=O)NC(=O)C1 | inconclusive: 10.3 µM | – |
| O=C1NCN(c2ccccc2)C12CCN(CCCOc1ccc(F)cc1)CC2 | inconclusive: 6.81 µM | – |
| O=c1[nH]c2ccccc2n1CCCN1CCC(n2c(=O)[nH]c3cc(Cl)ccc32)CC1 | inconclusive: 23 µM | – |
| C1CCNCC1 | – | inactive |
| C=CCCC#N | inconclusive: 45.1 µM | – |
| CC[N+]1(C)CCCC(OC(=O)C(O)(c2ccccc2)c2ccccc2)C1 (centres undefined) | – | inactive |
| COC(C)(C)C | – | inactive |
| CN1CCN(C(=O)O[C@H]2c3nccnc3C(=O)N2c2ccc(Cl)cn2)CC1 | inconclusive: 40.1 µM | – |
| C=CCN1CC[C@]23CCCC[C@H]2[C@H]1Cc1ccc(O)cc13 | inconclusive: 23 µM | – |
| N#CC(Cl)(Cl)Cl | inconclusive: 45.1 µM | – |
| C[C@H]1CC[C@]2(NC1)O[C@H]1C[C@H]3[C@@H]4CC[C@H]5C[C@@H](O)CC[C@]5(C)[C@H]4CC[C@]3(C)[C@H]1[C@@H]2C | – | inactive |
| O=[N+]([O-])c1ccc(CBr)cc1 | inconclusive: 27.1 µM | – |
| COC(=O)c1ccc(CBr)cc1 | inconclusive: 46.6 µM | – |
| C[C@]1(O)CC[C@H]2[C@@H]3CCC4=CC(=O)CC[C@]4(C)[C@@]3(F)[C@@H](O)C[C@@]21C | inconclusive: 46.3 µM and inconclusive: 40.2 µM | – |
| CC(C)c1c(CN(C)C(C)Cc2ccccc2)n(C)n(-c2ccccc2)c1=O (centres undefined) | inconclusive: 10.3 µM | – |

System: not listed separately
Test: TOX21_p53_BLA_p5_viability: Viability Assessment in the Tox21 HCT-116 p53 Agonism Beta-lactamase Assay, Phase 5 (AID 2283600)
Outline: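 Counter-readout for cytotoxicity: ATP-dependent luminescence from CellTiter-Glo, read in the beta-lactamase wells after 30 min at RT, following a 16 h compound exposure at 37C.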

| Compound | outcome | AC50 |
| --- | --- | --- |
| COc1ccc2c3c1O[C@H]1[C@H](O)CC[C@H]4[C@@H](C2)N(C)CC[C@@]341 | inactive | – |
| CCCCCCCCCC(=O)O[C@H]1CC[C@H]2[C@@H]3CCC4=CC(=O)CC[C@]4(C)[C@H]3CC[C@]12C | – | inconclusive: 23 µM |
| COc1cc(C[C@@H](C)N)c(OC)cc1Br | inactive | – |
| Nc1ccccc1Cl | – | inconclusive: 44.8 µM |
| CC(Cc1ccccc1)NC=O (centres undefined) | inactive | – |
| CCC1(C)CC(=O)NC(=O)C1 | – | inconclusive: 18 µM |
| CCCCCON=O | – | inconclusive: 46.2 µM |
| CC=CCC#N | – | inconclusive: 47 µM |
| Nc1ccccc1-c1ccccc1 | – | inconclusive: 45.9 µM |
| CCOP(=O)(OCC)OP(=O)(OCC)OCC | – | inconclusive: 46.1 µM |
| C1CCNCC1 | – | inconclusive: 47.4 µM |
| CN[C@@H](C)[C@H](O)c1ccccc1 | inactive | – |
| O=C(O)/C=C/C(=O)O | inactive | – |
| N#CC(Cl)(Cl)Cl | inactive | – |
| O=[N+]([O-])c1ccc(CBr)cc1 | – | inconclusive: 50.2 µM |
| C=CCOCC1CO1 (centres undefined) | inactive | – |
| CCC1(c2ccccc2)C(=O)NC(=O)NC1=O | – | inconclusive: 23 µM |
| CC1CCCC1 | – | inconclusive: 45.5 µM |
| C[C@]1(O)CC[C@H]2[C@@H]3CCC4=CC(=O)CC[C@]4(C)[C@@]3(F)[C@@H](O)C[C@@]21C | – | inconclusive: 7.46 µM |
| COP(N)(=S)Oc1ccccc1C(=O)OC(C)C (centres undefined) | inactive | – |
| O=[N+]([O-])c1ccc(CCl)cc1 | inactive | – |

2 successive entries already listed, quoted:

| Compound | outcome | AC50 |
| --- | --- | --- |
| Nc1ccccc1Cl | – | inconclusive: 44.8 µM |
| CC(Cc1ccccc1)NC=O (centres undefined) | inactive | – |

Biological target: Cellular tumor antigen p53 (Homo sapiens) (UniProt P04637)
Test: TOX21_p53_BLA_p4_ratio: Tox21 HCT-116 p53 Agonism Beta-lactamase Assay, Ratio, Phase 4 (AID 2283601)
Outline: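 Signal is the blue/green (460nm/530nm) ratio of cleaved versus uncleaved CCF4-AM substrate, read after 2 h substrate loading. Cells were HCT116 carrying the p53-responsive beta-lactamase reporter, dosed 16 h at 37C, 5% CO2; CellTiter-Glo measured in parallel.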

| Compound | AC50 | outcome |
| --- | --- | --- |
| O=[N+]([O-])c1ccccc1-c1ccccc1 | inconclusive: 0.000118 µM | – |
| COc1cc(C[C@@H](C)N)c(OC)cc1Br | inconclusive: 34.7 µM | – |
| CCCCN(N=O)C(=N)N[N+](=O)[O-] | active: 40.7 µM | – |
| Nc1ccccc1Cl | inconclusive: 44.8 µM | – |
| O=[N+]([O-])c1cc(Cl)c(Cl)c(Cl)c1 | inconclusive: 45.7 µM | – |
| CCCCCON=O | inconclusive: 46.2 µM | – |
| O=C1NCN(c2ccccc2)C12CCN(CCCOc1ccc(F)cc1)CC2 | – | inactive |
| O=c1[nH]c2ccccc2n1CCCN1CCC(n2c(=O)[nH]c3cc(Cl)ccc32)CC1 | inconclusive: 23 µM | – |
| C=CCCC#N | inconclusive: 45.1 µM | – |
| O=C(O)/C=C/C(=O)O | – | inactive |
| CC[N+]1(C)CCCC(OC(=O)C(O)(c2ccccc2)c2ccccc2)C1 (centres undefined) | inconclusive: 23 µM | – |
| N#CC(Cl)(Cl)Cl | inconclusive: 45.1 µM | – |
| C[C@H]1CC[C@]2(NC1)O[C@H]1C[C@H]3[C@@H]4CC[C@H]5C[C@@H](O)CC[C@]5(C)[C@H]4CC[C@]3(C)[C@H]1[C@@H]2C | inconclusive: 37.8 µM | – |
| O=[N+]([O-])c1ccc(CBr)cc1 | inconclusive: 50.2 µM | – |
| C=CCOCC1CO1 (centres undefined) | inconclusive: 45.1 µM | – |
| CCC1(c2ccccc2)C(=O)NC(=O)NC1=O | inconclusive: 46.9 µM and inconclusive: 23 µM | – |
| COC(=O)c1ccc(CBr)cc1 | – | inactive |
| C[C@]1(O)CC[C@H]2[C@@H]3CCC4=CC(=O)CC[C@]4(C)[C@@]3(F)[C@@H](O)C[C@@]21C | inconclusive: 46.3 µM | – |
